Reference: patent US11485987B2, “Methods for inducing bioorthogonal reactivity” (University of Delaware, priority 2015, dated 2022)
Residue numbers refer to the chain shown, from its start. At least one read-out could not be matched to a standard name with certainty.

By UniProt entry, the sequences of proteins in these tests, tags left out. Residues count along the entry.
UniProt Q43758, 1-250 A134P/E112K/K14D/W41F: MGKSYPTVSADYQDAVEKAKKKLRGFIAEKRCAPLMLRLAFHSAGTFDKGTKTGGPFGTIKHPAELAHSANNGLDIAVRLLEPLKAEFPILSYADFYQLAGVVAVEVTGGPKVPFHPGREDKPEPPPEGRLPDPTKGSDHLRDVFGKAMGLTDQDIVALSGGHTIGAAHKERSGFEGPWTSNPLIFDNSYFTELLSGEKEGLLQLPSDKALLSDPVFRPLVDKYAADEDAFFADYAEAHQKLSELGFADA

Experiments:
F41A APEX2 = biological target: T1, F41A APEX2 (Glycine max, UniProt Q43758, A134P/E112K/K14D/W41A); assay: Oxidation of DHT by F41A APEX2, UV-Vis initial rates and kinetic parameters; assay type: biochemical; details: F41A APEX2 + SOD
T1 sequence (Q43758 1-250 A134P/E112K/K14D/W41A): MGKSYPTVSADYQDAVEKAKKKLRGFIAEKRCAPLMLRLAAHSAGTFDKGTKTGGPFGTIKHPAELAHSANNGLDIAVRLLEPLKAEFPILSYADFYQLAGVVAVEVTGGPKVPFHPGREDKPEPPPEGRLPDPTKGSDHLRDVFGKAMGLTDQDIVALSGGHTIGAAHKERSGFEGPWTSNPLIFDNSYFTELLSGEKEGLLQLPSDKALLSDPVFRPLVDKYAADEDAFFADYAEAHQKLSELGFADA
Description: (§1) UV-Vis and fluorescence measurements were conducted in quartz cuvettes. All reactions were conducted in phosphate buffered saline (PBS) containing 100 μM EDTA with a pH=7.4. The PBS was prepared by adding 25 mM phosphate salts (Na2HPO4 and NaH2PO4), 100 mM NaCl, 100 μM EDTA to DI water. EDTA was added to quench free metals that can oxidize DHT. The buffer was pH adjusted to 7.4 using 1 mM HCl and 1 mM NaOH. UV experiments were stirred at 25° C. in a temperature-controlled cuvette holder of the spectrophotometer. Solutions of 15 or 16 were prepared from methanol stock solutions.
(§2) SOD (1 μM) was added to PBS containing 100 μM EDTA. 15 or 16 (60 μM) was added from methanol stock solutions. After 10s, APEX2 (SEQ ID NO:1) or F41A APEX2 (275 nM) was dosed in and oxidation was monitored at 325 nm for 15 and 285 nm for 16 at 60s intervals.
The initial rate of oxidation was calculated from the first 100 seconds after APEX2 (SEQ ID NO:1) or F41A APEX2 was added ([…]). In the assays where SOD was added, SOD (1 μM) was added to PBS containing 100 μM EDTA and 15 or 16 was dosed in. 10 seconds later, APEX2 (SEQ ID NO:1) or F41A APEX2 ([…]) was added and the rate of oxidation was calculated from the first 100 seconds after APEX2 (SEQ ID NO:1) or F41A APEX2 (275 nm) addition. […] Kinetic parameters (Table 2) were determined using GraphPad's Prism 6 software from the data presented below (Table 3-4).

APEX2 (SEQ ID NO:1) = biological target: T2, APEX2 (SEQ ID NO:1) (Glycine max, UniProt Q43758, A134P/E112K/K14D/W41F); assay: Oxidation of DHT by APEX2, UV-Vis initial rates and kinetic parameters; assay type: biochemical
T2 sequence (Q43758 1-250 A134P/E112K/K14D/W41F): T1 sequence (Q43758 1-250 A134P/E112K/K14D/W41A) with A41F
Description: as §1
15 or 16 (60 μM) from methanol stock solutions was added to PBS containing 100 μM EDTA. After 10s, APEX2 (SEQ ID NO:1) (275 nM) was dosed in and oxidation was monitored at 325 nm for 15 and 285 nm for 16 at 60s intervals (FIG. 10B-C).
16 (15 μM) DHT from methanol stock solutions was added to PBS containing 100 μM EDTA. After 10s, APEX2 (SEQ ID NO:1) (275 nM) or HRP (15 nM) was dosed in and oxidation was monitored at 285 nm at 10s intervals (FIG. 10D)
as §2
The initial rate of oxidation was calculated from the first 100 seconds after APEX2 (SEQ ID NO:1) or F41A APEX2 was added ([…]). In the assays where SOD was added, SOD (1 μM) was added to PBS containing 100 μM EDTA and 15 or 16 was dosed in. 10 seconds later, APEX2 (SEQ ID NO:1) or F41A APEX2 ([…]) was added and the rate of oxidation was calculated from the first 100 seconds after APEX2 (SEQ ID NO:1) or F41A APEX2 ([…]) addition. The initial rate of oxidation was adjusted to background oxidation of DHT in PBS with 100 μM EDTA. Kinetic parameters (Table 2) were determined using GraphPad's Prism 6 software from the data presented below (Table 3-4).

Compound | Kcat/Km (F41A APEX2) [M⁻¹ s⁻¹] | Kcat/Km (APEX2 (SEQ ID NO:1); APEX2 (SEQ ID NO: 1) + SOD) [M⁻¹ s⁻¹] | Kcat/Km (APEX2 (SEQ ID NO:1); APEX2 (SEQ ID NO: 1), no SOD) [M⁻¹ s⁻¹]
O=C(O)CCCC(=O)Nc1ccc(C2=NNC(c3ccccn3)=NN2)nc1 [compound 15] | 6533 | 5956 | 4134
CCCCNC(=O)C1=NNC(c2ccccn2)=NN1 [compound 16] | 3900 | 6662 | 3426
